Test results from US20210380685A1.
No constants are given. Whether binding was seen depends on the method and setting. Some binding calls cover weakened binding; strength is not graded here.

By UniProt entry, the sequences of proteins in these tests, tags left out. Residues count along the entry.
UniProt P20273, residues 20-687: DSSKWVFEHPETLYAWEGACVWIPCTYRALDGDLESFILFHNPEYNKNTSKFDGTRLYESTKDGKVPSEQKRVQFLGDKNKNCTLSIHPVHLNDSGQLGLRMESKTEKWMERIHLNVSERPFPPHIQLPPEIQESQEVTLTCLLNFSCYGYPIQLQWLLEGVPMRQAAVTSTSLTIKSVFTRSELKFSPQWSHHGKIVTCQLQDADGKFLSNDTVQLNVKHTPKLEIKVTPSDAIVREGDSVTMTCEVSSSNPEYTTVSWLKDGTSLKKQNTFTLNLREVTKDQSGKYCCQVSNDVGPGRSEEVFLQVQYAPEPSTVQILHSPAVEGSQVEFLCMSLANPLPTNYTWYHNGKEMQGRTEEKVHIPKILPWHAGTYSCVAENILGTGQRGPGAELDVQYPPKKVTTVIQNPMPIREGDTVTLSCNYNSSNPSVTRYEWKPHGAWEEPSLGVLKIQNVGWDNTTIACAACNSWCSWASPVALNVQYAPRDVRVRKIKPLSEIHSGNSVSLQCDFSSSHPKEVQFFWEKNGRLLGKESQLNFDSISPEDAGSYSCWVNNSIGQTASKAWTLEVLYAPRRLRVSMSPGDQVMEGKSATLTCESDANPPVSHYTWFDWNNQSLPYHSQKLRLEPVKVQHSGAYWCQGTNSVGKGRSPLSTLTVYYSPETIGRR

Molecular target: human recombinant CD22 (PeproTech) (human) (UniProt P20273)
Assay: SPR (BIAcore), recombinant human CD22 immobilised on a CM5 chip, SM03 injected at 6 concentrations

- binding: binds
B1: SM03 (antibody, V domains shown)
VH: QVQLQESGGGLVKPGGSLKLSCAASGFAFSIYDMSWVRQTPEKRLEWVAYISSGGGTTYYPDTVKGRFTISRDNAKNTLYLQMSSLKSEDTAMYYCARHSGYGSSYGVLFAYWGQGTLVTVSS
VL: DIQLTQTTSSLSASLGDRVTISCRASQDISNYLNWYQQKPDGTVKLLIYYTSILHSGVPSRFSGSGSGTDYSLTISNLEQEDFATYFCQQGNTLPWTFGGGTKLEIKR
